Where “and” joins values, the source holds several entries; their conditions need not be identical. Equal values may be shown once. The name of at least one read-out is uncertain.
Test system: Male ICR mice
Conditions: mouse, in vivo

COc1cc(CNC(=S)NCC(COC(=O)C(C)(C)C)Cc2ccc(C(C)(C)C)cc2)ccc1O (stereo not shown) [JYL-273, reference compound]
Relative effect (fold stronger than capsaicin): 13 and 12

Source: US6872748B2 (priority 2001, dated 2005)
